# According to the supplement of paper PMC8728848:
# Some of the results follow.
# Columns and labels:
# Assay in all cases: glycan array binding signal (z-score within array); higher = stronger binding
# Conditions in all cases: glycan notation: IUPAC condensed, linker removed
# [1] = target: Neu5Ac(a2-6)Gal(b1-4)GlcNAc(b1-2)Man(a1-3)[Man(a1-6)]Man(b1-4)GlcNAc(b1-4)GlcNAc
# Summary of the method: (§1)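 Columns mapping to the same glycan were averaged after glycan names were converted to IUPAC-condensed notation. The data come from 3228 arrays in the Consortium for Functional Glycomics database, limited to those with an available protein sequence. Binding is reported as a within-array Z-score averaged across arrays of one protein sequence and across linkers.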
# [2] = target: Neu5Ac(a2-6)Gal(b1-4)GlcNAc(b1-2)Man(a1-3)[Neu5Ac(a2-3)Gal(b1-4)GlcNAc(b1-2)Man(a1-6)]Man(b1-4)GlcNAc(b1-4)GlcNAc
# Summary of the method: as §1
# [3] = target: Neu5Ac(a2-6)Gal(b1-4)GlcNAc(b1-2)Man(a1-3)[Neu5Ac(a2-6)Gal(b1-4)GlcNAc(b1-2)Man(a1-6)]Man(b1-4)GlcNAc(b1-4)GlcNAc
# Summary of the method: as §1
# [4] = target: Neu5Ac(a2-6)Gal(b1-4)GlcNAc(b1-2)Man(a1-3)[Neu5Ac(a2-6)Gal(b1-4)GlcNAc(b1-2)Man(a1-6)]Man(b1-4)GlcNAc(b1-4)[Fuc(a1-6)]GlcNAc
# Summary of the method: as §1
# [5] = target: Neu5Ac(a2-6)Gal(b1-4)GlcNAc(b1-2)Man(a1-6)Man(b1-4)GlcNAc(b1-4)GlcNAc
# Summary of the method: as §1
# [6] = target: Neu5Ac(a2-6)Gal(b1-4)GlcNAc(b1-2)Man(a1-6)[Gal(b1-4)GlcNAc(b1-2)Man(a1-3)]Man(b1-4)GlcNAc(b1-4)GlcNAc
# Summary of the method: as §1
# [7] = target: Neu5Ac(a2-6)Gal(b1-4)GlcNAc(b1-2)Man(a1-6)[GlcNAc(b1-2)Man(a1-3)]Man(b1-4)GlcNAc(b1-4)GlcNAc
# Summary of the method: as §1
# [8] = target: Neu5Ac(a2-6)Gal(b1-4)GlcNAc(b1-2)Man(a1-6)[Man(a1-3)]Man(b1-4)GlcNAc(b1-4)GlcNAc
# Summary of the method: as §1
# [9] = target: Neu5Ac(a2-6)Gal(b1-4)GlcNAc(b1-2)[Neu5Ac(a2-6)Gal(b1-4)GlcNAc(b1-4)]Man(a1-3)[GlcNAc(b1-4)][Neu5Ac(a2-6)Gal(b1-4)GlcNAc(b1-2)[Neu5Ac(a2-6)Gal(b1-4)GlcNAc(b1-6)]Man(a1-6)]Man(b1-4)GlcNAc(b1-4)GlcNAc
# Summary of the method: as §1
# [10] = target: Neu5Ac(a2-6)Gal(b1-4)GlcNAc(b1-2)[Neu5Ac(a2-6)Gal(b1-4)GlcNAc(b1-4)]Man(a1-3)[GlcNAc(b1-4)][Neu5Ac(a2-6)Gal(b1-4)GlcNAc(b1-4)Man(a1-6)]Man(b1-4)GlcNAc(b1-4)GlcNAc
# Summary of the method: as §1
# [11] = target: Neu5Ac(a2-6)Gal(b1-4)GlcNAc(b1-2)[Neu5Ac(a2-6)Gal(b1-4)GlcNAc(b1-6)]Man(a1-6)[Neu5Ac(a2-6)Gal(b1-4)GlcNAc(b1-2)Man(a1-3)][GlcNAc(b1-4)]Man(b1-4)GlcNAc(b1-4)GlcNAc
# Summary of the method: as §1
# [12] = target: Neu5Ac(a2-6)Gal(b1-4)GlcNAc(b1-3)Gal(b1-3)GlcNAc
# Summary of the method: as §1
# [13] = target: Neu5Ac(a2-6)Gal(b1-4)GlcNAc(b1-3)Gal(b1-4)GlcNAc
# Summary of the method: as §1
# [14] = target: Neu5Ac(a2-6)Gal(b1-4)GlcNAc(b1-3)Gal(b1-4)GlcNAc(b1-2)Man(a1-3)[Neu5Ac(a2-6)Gal(b1-4)GlcNAc(b1-3)Gal(b1-4)GlcNAc(b1-2)Man(a1-6)]GalNAc
# Summary of the method: as §1
# [15] = target: Neu5Ac(a2-6)Gal(b1-4)GlcNAc(b1-3)Gal(b1-4)GlcNAc(b1-3)Gal(b1-4)GlcNAc
# Summary of the method: as §1
# [16] = target: Neu5Ac(a2-6)Gal(b1-4)GlcNAc(b1-3)Gal(b1-4)GlcNAc(b1-3)Gal(b1-4)GlcNAc(b1-2)Man(a1-3)[Neu5Ac(a2-6)Gal(b1-4)GlcNAc(b1-3)Gal(b1-4)GlcNAc(b1-3)Gal(b1-4)GlcNAc(b1-2)Man(a1-6)]GalNAc
# Summary of the method: as §1
# [17] = target: Neu5Ac(a2-6)Gal(b1-4)GlcNAc(b1-3)Gal(b1-4)GlcNAc(b1-3)GalNAc
# Summary of the method: as §1
# [18] = target: Neu5Ac(a2-6)Gal(b1-4)GlcNAc(b1-3)Gal(b1-4)GlcNAc(b1-3)[Neu5Ac(a2-6)Gal(b1-4)GlcNAc(b1-3)Gal(b1-4)GlcNAc(b1-6)]GalNAc
# Summary of the method: as §1
# [19] = target: Neu5Ac(a2-6)Gal(b1-4)GlcNAc(b1-3)Gal(b1-4)GlcNAc(b1-6)[Gal(b1-3)]GalNAc
# Summary of the method: as §1
# [20] = target: Neu5Ac(a2-6)Gal(b1-4)GlcNAc(b1-3)Gal(b1-4)[Fuc(a1-3)]GlcNAc(b1-3)Gal(b1-4)[Fuc(a1-3)]GlcNAc
# Summary of the method: as §1
# [21] = target: Neu5Ac(a2-6)Gal(b1-4)GlcNAc(b1-3)GalNAc
# Summary of the method: as §1
# [22] = target: Neu5Ac(a2-6)Gal(b1-4)GlcNAc(b1-3)[Neu5Ac(a2-6)Gal(b1-4)GlcNAc(b1-6)]GalNAc
# Summary of the method: as §1
# [23] = target: Neu5Ac(a2-6)Gal(b1-4)GlcNAc(b1-6)GalNAc
# Summary of the method: as §1
# [24] = target: Neu5Ac(a2-6)Gal(b1-4)GlcNAc(b1-6)[Gal(b1-3)GlcNAc(b1-3)]Gal(b1-4)Glc
# Summary of the method: as §1
# [25] = target: Neu5Ac(a2-6)Gal(b1-4)GlcNAc(b1-6)[Gal(b1-3)]GalNAc
# Summary of the method: as §1
# [26] = target: Neu5Ac(a2-6)Gal(b1-4)GlcNAc6S
# Summary of the method: as §1
# Neu5Ac(a2-6)GalNAc = target: Neu5Ac(a2-6)GalNAc
# Summary of the method: as §1
# [27] = target: Neu5Ac(a2-6)GalNAc(b1-4)GlcNAc
# Summary of the method: as §1
# [28] = target: Neu5Ac(a2-6)GalNAc(b1-4)GlcNAc6S
# Summary of the method: as §1
# [29] = target: Neu5Ac(a2-6)GlcNAc(b1-4)GlcNAc
# Summary of the method: as §1
# [30] = target: Neu5Ac(a2-6)GlcNAc(b1-4)GlcNAc(b1-4)GlcNAc
# Summary of the method: as §1
binder,measurement,setting,value
his-Lectin-24A (Drosophila melanogaster) (protein) MFRLSVLVLNLLLVSHEFSAGTAKIEIQPLPALCNGYCFPTLKPVMEYVAIHQDKWNTCTEILANEARKDQIQLNIQLDALKADVSNIKASQLSKDEKLDRMEREQFAMHESLETINRYLTVKLDRTKLQLEAIKNTMDYMKAQMDGYFSAINGVQCLQPGFEKIGDRYFYIEEDVELNWLDAQAKCRRMGGHLASIKTKQEFDAIVEKLDDSKSYFLGVNENTKTGDFVSAASGKSCLYHEWGPGEPHHNNDQERCVSILRKLMHVGNCTYEKRFICQYGI,glycan array binding signal (z-score),[1],-0.737
same,glycan array binding signal (z-score),[2],-0.316
same,glycan array binding signal (z-score),[3],0.078
same,glycan array binding signal (z-score),[4],1.74
same,glycan array binding signal (z-score),[5],1.27
same,glycan array binding signal (z-score),[6],-1.12
same,glycan array binding signal (z-score),[7],-0.546
same,glycan array binding signal (z-score),[8],1.07
same,glycan array binding signal (z-score),[9],-0.371
same,glycan array binding signal (z-score),[10],-0.73
same,glycan array binding signal (z-score),[11],-2.86
same,glycan array binding signal (z-score),[12],0.708
same,glycan array binding signal (z-score),[13],-1.46
same,glycan array binding signal (z-score),[14],1.05
same,glycan array binding signal (z-score),[15],0.198
same,glycan array binding signal (z-score),[16],0.167
same,glycan array binding signal (z-score),[17],-1.61
same,glycan array binding signal (z-score),[18],0.118
same,glycan array binding signal (z-score),[19],0.779
same,glycan array binding signal (z-score),[20],0.826
same,glycan array binding signal (z-score),[21],-1.68
same,glycan array binding signal (z-score),[22],0.73
same,glycan array binding signal (z-score),[23],-0.515
same,glycan array binding signal (z-score),[24],0.282
same,glycan array binding signal (z-score),[25],0.152
same,glycan array binding signal (z-score),[26],-0.082
same,glycan array binding signal (z-score),Neu5Ac(a2-6)GalNAc,-1.17
same,glycan array binding signal (z-score),[27],-1.81
same,glycan array binding signal (z-score),[28],0.466
same,glycan array binding signal (z-score),[29],1.01
same,glycan array binding signal (z-score),[30],-0.648

# At a glance, part of the list above.
binder,measurement,setting,value
his-Lectin-24A (Drosophila melanogaster) (protein) MFRLSVLVLNLLLVSHEFSAGTAKIEIQPLPALCNGYCFPTLKPVMEYVAIHQDKWNTCTEILANEARKDQIQLNIQLDALKADVSNIKASQLSKDEKLDRMEREQFAMHESLETINRYLTVKLDRTKLQLEAIKNTMDYMKAQMDGYFSAINGVQCLQPGFEKIGDRYFYIEEDVELNWLDAQAKCRRMGGHLASIKTKQEFDAIVEKLDDSKSYFLGVNENTKTGDFVSAASGKSCLYHEWGPGEPHHNNDQERCVSILRKLMHVGNCTYEKRFICQYGI,glycan array binding signal (z-score),[1],-0.737
same,glycan array binding signal (z-score),[2],-0.316
